Test results from patent US20250188150A1, “PEPTIDES FOR THE TREATMENT OF FIBROSIS” (Technion Research & Development Foundation Limited, priority 2022, published 2025).
These are yes or no findings as the source states them, for the method shown. Some results given as binding are weak or reduced against the parent protein; the word gives no strength.

Chains of the proteins cited; added tags and fusions are not shown. Lines headed by an entry give the natural chain unless they say otherwise; changes in a name come on top.
UniProt P02751: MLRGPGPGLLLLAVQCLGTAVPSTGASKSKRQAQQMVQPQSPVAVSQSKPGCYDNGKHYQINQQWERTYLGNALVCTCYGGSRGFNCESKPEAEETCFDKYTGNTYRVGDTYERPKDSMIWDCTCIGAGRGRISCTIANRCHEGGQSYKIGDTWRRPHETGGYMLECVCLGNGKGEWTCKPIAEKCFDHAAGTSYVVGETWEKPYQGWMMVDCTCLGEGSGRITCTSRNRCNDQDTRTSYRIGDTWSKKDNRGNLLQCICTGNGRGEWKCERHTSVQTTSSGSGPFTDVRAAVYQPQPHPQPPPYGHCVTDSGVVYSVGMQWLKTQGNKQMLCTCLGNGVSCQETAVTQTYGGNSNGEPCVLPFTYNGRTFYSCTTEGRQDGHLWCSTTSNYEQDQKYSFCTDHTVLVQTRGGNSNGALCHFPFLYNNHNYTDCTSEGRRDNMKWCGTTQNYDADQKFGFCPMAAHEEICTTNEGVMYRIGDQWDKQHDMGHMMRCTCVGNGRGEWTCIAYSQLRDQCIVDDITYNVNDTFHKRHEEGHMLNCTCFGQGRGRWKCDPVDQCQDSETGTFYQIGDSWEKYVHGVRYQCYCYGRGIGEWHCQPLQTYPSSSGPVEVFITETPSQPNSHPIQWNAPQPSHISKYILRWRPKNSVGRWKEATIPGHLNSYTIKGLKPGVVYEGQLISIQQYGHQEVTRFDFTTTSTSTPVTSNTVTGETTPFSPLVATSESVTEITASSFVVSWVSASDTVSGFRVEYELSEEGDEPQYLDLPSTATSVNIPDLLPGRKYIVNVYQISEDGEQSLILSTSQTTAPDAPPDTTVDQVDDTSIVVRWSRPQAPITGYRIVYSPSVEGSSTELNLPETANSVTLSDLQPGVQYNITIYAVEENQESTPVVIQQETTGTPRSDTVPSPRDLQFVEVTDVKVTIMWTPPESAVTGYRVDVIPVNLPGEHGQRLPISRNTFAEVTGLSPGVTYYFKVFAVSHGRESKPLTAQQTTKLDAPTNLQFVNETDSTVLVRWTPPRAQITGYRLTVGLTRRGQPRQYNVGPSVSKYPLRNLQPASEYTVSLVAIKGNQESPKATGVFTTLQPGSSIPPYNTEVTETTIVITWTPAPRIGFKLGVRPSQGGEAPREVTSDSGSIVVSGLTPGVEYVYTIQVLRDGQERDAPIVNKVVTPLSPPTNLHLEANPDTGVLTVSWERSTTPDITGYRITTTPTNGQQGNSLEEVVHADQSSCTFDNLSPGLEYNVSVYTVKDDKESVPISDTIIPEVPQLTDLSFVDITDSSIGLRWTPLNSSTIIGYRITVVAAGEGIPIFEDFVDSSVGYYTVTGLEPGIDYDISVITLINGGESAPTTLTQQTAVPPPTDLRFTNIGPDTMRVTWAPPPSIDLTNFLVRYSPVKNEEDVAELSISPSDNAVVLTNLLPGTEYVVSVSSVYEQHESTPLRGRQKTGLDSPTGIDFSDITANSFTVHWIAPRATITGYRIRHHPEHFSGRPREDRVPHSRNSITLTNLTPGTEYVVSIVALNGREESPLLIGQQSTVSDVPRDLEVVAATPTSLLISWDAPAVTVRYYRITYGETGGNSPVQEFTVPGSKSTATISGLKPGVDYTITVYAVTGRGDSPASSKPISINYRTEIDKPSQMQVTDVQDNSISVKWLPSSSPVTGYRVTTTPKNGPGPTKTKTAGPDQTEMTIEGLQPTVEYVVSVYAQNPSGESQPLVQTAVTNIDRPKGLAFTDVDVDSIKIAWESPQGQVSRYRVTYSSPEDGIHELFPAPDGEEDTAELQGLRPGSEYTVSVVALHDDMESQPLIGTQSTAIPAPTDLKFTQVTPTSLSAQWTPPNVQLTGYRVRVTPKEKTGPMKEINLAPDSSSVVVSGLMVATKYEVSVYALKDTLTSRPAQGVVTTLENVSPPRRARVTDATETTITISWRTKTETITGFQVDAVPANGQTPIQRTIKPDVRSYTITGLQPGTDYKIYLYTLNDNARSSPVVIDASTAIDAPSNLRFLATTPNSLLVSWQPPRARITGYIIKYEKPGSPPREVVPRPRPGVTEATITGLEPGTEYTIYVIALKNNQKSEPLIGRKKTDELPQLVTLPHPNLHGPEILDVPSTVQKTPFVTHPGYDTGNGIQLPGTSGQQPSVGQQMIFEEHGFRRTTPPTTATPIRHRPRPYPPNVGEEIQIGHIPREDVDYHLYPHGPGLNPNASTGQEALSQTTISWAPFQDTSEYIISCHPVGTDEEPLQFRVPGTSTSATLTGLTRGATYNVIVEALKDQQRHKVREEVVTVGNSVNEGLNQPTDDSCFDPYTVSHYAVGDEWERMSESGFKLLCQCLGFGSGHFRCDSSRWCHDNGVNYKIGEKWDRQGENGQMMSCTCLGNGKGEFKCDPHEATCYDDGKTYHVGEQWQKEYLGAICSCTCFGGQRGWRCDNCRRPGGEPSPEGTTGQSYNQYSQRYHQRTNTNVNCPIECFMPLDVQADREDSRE

Biological target: human plasma FN (hFN, Sigma-Aldrich, FC010-10MG) (human) (UniProt P02751)
Assay: quantification of LOXL3 on FN-coated glass after enzyme treatment and washes

binding: binds
B1: human recombinant LOXL3 (RhLOXL3, R&D systems, 6069-AO) (enzyme, UniProt P58215 26-753, looked up)
chain: SPSPSTGPEKKAGSQGLRFRLAGFPRKPYEGRVEIQRAGEWGTICDDDFTLQAAHILCRELGFTEATGWTHSAKYGPGTGRIWLDNLSCSGTEQSVTECASRGWGNSDCTHDEDAGVICKDQRLPGFSDSNVIEVEHHLQVEEVRIRPAVGWGRRPLPVTEGLVEVRLPDGWSQVCDKGWSAHNSHVVCGMLGFPSEKRVNAAFYRLLAQRQQHSFGLHGVACVGTEAHLSLCSLEFYRANDTARCPGGGPAVVSCVPGPVYAASSGQKKQQQSKPQGEARVRLKGGAHPGEGRVEVLKASTWGTVCDRKWDLHAASVVCRELGFGSAREALSGARMGQGMGAIHLSEVRCSGQELSLWKCPHKNITAEDCSHSQDAGVRCNLPYTGAETRIRLSGGRSQHEGRVEVQIGGPGPLRWGLICGDDWGTLEAMVACRQLGLGYANHGLQETWYWDSGNITEVVMSGVRCTGTELSLDQCAHHGTHITCKRTGTRFTAGVICSETASDLLLHSALVQETAYIEDRPLHMLYCAAEENCLASSARSANWPYGHRRLLRFSSQIHNLGRADFRPKAGRHSWVWHECHGHYHSMDIFTHYDILTPNGTKVAEGHKASFCLEDTECQEDVSKRYECANFGEQGITVGCWDLYRHDIDCQWIDITDVKPGNYILQVVINPNFEVAESDFTNNAMKCNCKYDGHRIWVHNCHIGDAFSEEANRRFERYPGQTSNQII
